# Some of the results follow.
# Chains of the proteins cited; added tags and fusions are not shown.
# UniProt Q0JBA9, entry or part of it: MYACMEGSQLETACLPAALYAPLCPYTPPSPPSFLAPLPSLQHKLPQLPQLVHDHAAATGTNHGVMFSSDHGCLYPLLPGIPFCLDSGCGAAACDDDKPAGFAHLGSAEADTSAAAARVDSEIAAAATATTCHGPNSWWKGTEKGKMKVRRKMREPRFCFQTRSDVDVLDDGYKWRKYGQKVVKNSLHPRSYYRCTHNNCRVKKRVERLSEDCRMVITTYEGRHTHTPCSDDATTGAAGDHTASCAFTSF
# Biological target: OsWRKY34 (Oryza sativa, UniProt Q0JBA9 1-250)
# Experiment: protein-binding microarray (RPBM); PBS, 2% BSA, 51.3 ng/ul salmon testes DNA, 50 uM zinc acetate, 200 nM TF, 25 C, 1 h; high values mean tight binding
# Conditions: protein: recombinant; tags: N-terminal polyhistidine and DsRed monomer fusion (pET32a); label: CyDye5-dUTP incorporated in the synthesized complementary strand; 3' TTTTT single-stranded linker to array surface; dsDNA, one strand shown
# Procedure, shortened: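 Ni–NTA purification followed expression in E. coli BL21-CodonPlus of transcription factors fused N-terminally to a polyhistidine tag and DsRed. At 200 nM in PBS with 2% BSA, salmon testes DNA and 50 µM zinc acetate, the protein was incubated for 1 h at 25 °C with a custom Agilent array that had been primer-extended with Cy5-dUTP and blocked with 2% BSA. After washing, the array was read on an Axon 4000B scanner. The binding signal is per-feature fluorescence intensity in arbitrary units.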
row,Sequence,binding signal
1,ATCGCCATCATCCACTGTTCATCCACTCCATCTCTCTCTCCGGAGTCACCTAGTGCAG,12400 fluorescence intensity (a.u.)
2,TCTCGATTGCTCTTCCCCTGCCTTTGCGGCGCCGCCGGGTCGGAGTCACCTAGTGCAG,8480 fluorescence intensity (a.u.)
3,TACCACTCGTGACGTCACGCCCACTTTACTTTCGCGTAACCGGAGTCACCTAGTGCAG,12900 fluorescence intensity (a.u.)
4,AGCATGATAATCTCTCTCCACATTTTCTACTCGTGCCATACGGAGTCACCTAGTGCAG,8410 fluorescence intensity (a.u.)
5,CGCCCGCCACCATCCTTCTCTCTTCCGGTGAACTCATGCACGGAGTCACCTAGTGCAG,9070 fluorescence intensity (a.u.)
6,CATCTGCACGCATATATATCTGTAAACTCAGCGCGTTTTTCGGAGTCACCTAGTGCAG,8100 fluorescence intensity (a.u.)
7,AGAGAGTGGCTGAGGTGAGCTGTGTAGGGTGGGGTTTCCGCGGAGTCACCTAGTGCAG,10300 fluorescence intensity (a.u.)
8,AGCATCCGAATCCGGCCACCTCATCATCTCGCCTCGCTTCCGGAGTCACCTAGTGCAG,16900 fluorescence intensity (a.u.)
9,TTAATCGTCCACACGTCACTCTCCTTTGATCCGAAGCTCACGGAGTCACCTAGTGCAG,8210 fluorescence intensity (a.u.)
10,GAGCTAACCCATTCTCCTCTCGTCTCCGCGGCATCTGACACGGAGTCACCTAGTGCAG,8320 fluorescence intensity (a.u.)
11,TAGGCTGGTGTTGATGTTCTTTGATTCGGTATAAATCAATCGGAGTCACCTAGTGCAG,8830 fluorescence intensity (a.u.)
12,ACTCTACCTGCTTACTGCCTTACTCGATCCAGACAGTTCACGGAGTCACCTAGTGCAG,8900 fluorescence intensity (a.u.)
13,TTGGGTGGAGTTACTGTGTTTATTGCTTTCCTTGCAAGCTCGGAGTCACCTAGTGCAG,8290 fluorescence intensity (a.u.)
14,CGCTTCCACATGCTGCACCGAAACCTCTCATGTTCATCTCCGGAGTCACCTAGTGCAG,14400 fluorescence intensity (a.u.)
15,CCACCGGCTGCAGATTCCACCTGCTCATCGTCGCTTCTTCCGGAGTCACCTAGTGCAG,8930 fluorescence intensity (a.u.)
16,CCTTCGCTTCCGCTGCTCATTTTACTGCCTTGCTCTCGCGCGGAGTCACCTAGTGCAG,8760 fluorescence intensity (a.u.)
17,TCACCACCTCTTGTTCGGTTCTTCCCCATCAGGCCATCACCGGAGTCACCTAGTGCAG,9000 fluorescence intensity (a.u.)
18,ACACCTTAATTTTCTGGCCGTCGTGATCTGTATCGCTCTTCGGAGTCACCTAGTGCAG,11100 fluorescence intensity (a.u.)
19,TGGTTTGGTTTTCCCGCTCAGCGCTTTGAAAAATTTGGGGCGGAGTCACCTAGTGCAG,14100 fluorescence intensity (a.u.)
20,TTTCAGATTTGATGCATTGCCTGTTTTTACCTACCTTTTACGGAGTCACCTAGTGCAG,13100 fluorescence intensity (a.u.)
21,CCAGTCTTGATTCCATTTCCTCTATTTGTATCCCCAAATACGGAGTCACCTAGTGCAG,9900 fluorescence intensity (a.u.)

row,Sequence,binding signal
1,ATATAGCCTACTACTAGCTCCAAATCATCTATAGTCAATGCGGAGTCACCTAGTGCAG,8120 fluorescence intensity (a.u.)
2,AGGCTATCGTATGACTTTCTTCTGCTTTCATTTGTGTTCACGGAGTCACCTAGTGCAG,15300 fluorescence intensity (a.u.)
3,CCCACGCGCCCGGCTATAAATCGCATCCCCGCATTCCTAGCGGAGTCACCTAGTGCAG,8440 fluorescence intensity (a.u.)
4,GCAGGTTCTTCTATCCAACAAATTCATGGCAGCGCCTTTCCGGAGTCACCTAGTGCAG,8610 fluorescence intensity (a.u.)
5,CGAAATCACCGATTCCGCCATCCCACCACCACACAAATCCCGGAGTCACCTAGTGCAG,8080 fluorescence intensity (a.u.)
6,GATTAGCACAAGCTATTCACTATAATTTTGGTCAAACATTCGGAGTCACCTAGTGCAG,8210 fluorescence intensity (a.u.)
7,AACGCGGCCCATTTACACTCCACTCTCCAATCGCCGTCCGCGGAGTCACCTAGTGCAG,9480 fluorescence intensity (a.u.)
8,CGGCGCGCCGTGATTGTGCCTGATTGGGGTGGGGTTGGGGCGGAGTCACCTAGTGCAG,25300 fluorescence intensity (a.u.)
9,TCCGGCTTCCGTGCACGGCGTGTCTGTTCACCTTCTTGTTCGGAGTCACCTAGTGCAG,8090 fluorescence intensity (a.u.)
10,ATCTACCTTGATATGTTTTCTTGTGGTTCTATTAGTGAAACGGAGTCACCTAGTGCAG,10300 fluorescence intensity (a.u.)
11,TATAGTTGTGTACTAGTGTCACTCACGCCACCCGTCTCATCGGAGTCACCTAGTGCAG,8870 fluorescence intensity (a.u.)
12,TCTACCTCCTCACCGTCGTCGCCGTGGTCACCGCGGCTTCCGGAGTCACCTAGTGCAG,9450 fluorescence intensity (a.u.)
13,GCCGACTACCACCACAACCGCCTCTTGCTGCTATGGATCGCGGAGTCACCTAGTGCAG,9110 fluorescence intensity (a.u.)
14,AAACTGCTAAACTGCGAGCTCATCACAATCTGGAACCATGCGGAGTCACCTAGTGCAG,8340 fluorescence intensity (a.u.)
15,TTTCATGCGTTCCAAGTTGTCATTACTCCTTTGTACTCTCCGGAGTCACCTAGTGCAG,10700 fluorescence intensity (a.u.)
16,CTGGCCTCTCTGCCGCCGCCGCCTCCCAGCCAGCGCTGATCGGAGTCACCTAGTGCAG,9060 fluorescence intensity (a.u.)
17,AACACCTTCATCTTCATCTTCTACCGCCAGGCAGCTGCCTCGGAGTCACCTAGTGCAG,10400 fluorescence intensity (a.u.)
18,GGCTATACTATTGATCTCGCTCTTAGCGCCATTTTCCAACCGGAGTCACCTAGTGCAG,10800 fluorescence intensity (a.u.)
19,GTCCAGTACATTATTTCCTTCACTTGAAATGTTTGAAGAACGGAGTCACCTAGTGCAG,8560 fluorescence intensity (a.u.)
20,GGCGCTTGTGTGCGTATTTTTGGGCGCGTATTTTTCGTTTCGGAGTCACCTAGTGCAG,8300 fluorescence intensity (a.u.)
21,ACACACACCTGAATGTCATATGCTCGTCAGAAATATATTTCGGAGTCACCTAGTGCAG,10000 fluorescence intensity (a.u.)

row,Sequence,binding signal
1,GCGGAGTTTTGTACCTTTTCTACCATGAATTGAGCATTTCCGGAGTCACCTAGTGCAG,8650 fluorescence intensity (a.u.)
2,TTATCCGGCGGGCACTTTTCCTGCTGCATTATCTTTATATCGGAGTCACCTAGTGCAG,9310 fluorescence intensity (a.u.)
3,TCCGTCCCTGCAGTCACCTTATTGGTCAAATTTTAAATATCGGAGTCACCTAGTGCAG,13400 fluorescence intensity (a.u.)
4,TGGGTCTGTTTGGGGAGCTTCTAGCTGCAGCAGTTTCTTACGGAGTCACCTAGTGCAG,10300 fluorescence intensity (a.u.)
5,GGAGCCTGTAGCATGTGGTGGAGTAGTCTTTTTTTTTTCCCGGAGTCACCTAGTGCAG,8580 fluorescence intensity (a.u.)
6,GGCGGTGGATCTCGTGTACCGCGGCTGGGGCAGGGATGGGCGGAGTCACCTAGTGCAG,10900 fluorescence intensity (a.u.)
7,AAATTATCATGGTCGTCTTCATTCCATTCAAGCAAAAAAACGGAGTCACCTAGTGCAG,8490 fluorescence intensity (a.u.)
8,ATCTGCTCCAATAAGCATATGCATTCCTTCAATTCCAGCTCGGAGTCACCTAGTGCAG,8120 fluorescence intensity (a.u.)
9,GCATGTATCTTGTGCACCGGGCCTTCGTTGGTTTCCCGTACGGAGTCACCTAGTGCAG,9770 fluorescence intensity (a.u.)
10,AGCTGCCCTAGGTCTACCTCCACCCCTGCACCATATCACACGGAGTCACCTAGTGCAG,8060 fluorescence intensity (a.u.)
11,CAAATGTAATCCATCCGTTCTTTGTCCTTTTGTATTGAATCGGAGTCACCTAGTGCAG,8250 fluorescence intensity (a.u.)
12,TGTGCCGTTTTCTAACGCCGTCCTTTCATGCGTTATTCCTCGGAGTCACCTAGTGCAG,13500 fluorescence intensity (a.u.)
13,AGATGCTCCATCCCATCCTCCTTTGACTTCTTGCCGCCGCCGGAGTCACCTAGTGCAG,8380 fluorescence intensity (a.u.)
14,ATTTGCAAATTGAGTTTCTTGTGTTCATCTTGTTCTTGCTCGGAGTCACCTAGTGCAG,8180 fluorescence intensity (a.u.)
15,AACCACCATCTCCCCTGAAACCAACACCGGCAAAACACAACGGAGTCACCTAGTGCAG,8780 fluorescence intensity (a.u.)
16,TCAGACTTGCATTCTGTGATTGCTTTGGTTACTGCAACTTCGGAGTCACCTAGTGCAG,8100 fluorescence intensity (a.u.)
17,GGTGATTCTGTGCTGTTGATGATGTTTTCTCTGAAGATTCCGGAGTCACCTAGTGCAG,11500 fluorescence intensity (a.u.)
18,TGTTGTTGGCGATGTCGGCGATGTCGGCGGCGGGCGGCGGCGGAGTCACCTAGTGCAG,9470 fluorescence intensity (a.u.)
19,ACTCGTCTGCGACCGACGCCGCCTCATCCGCGCCCGCCGCCGGAGTCACCTAGTGCAG,9240 fluorescence intensity (a.u.)
20,ATGTGGTTGGTTGGTGACTTTTTATGCACACGCCACCTACCGGAGTCACCTAGTGCAG,8170 fluorescence intensity (a.u.)
21,GCTTCCTGGCGTGAATTCCGTGTACTTATTTGTTATAATTCGGAGTCACCTAGTGCAG,8950 fluorescence intensity (a.u.)

row,Sequence,binding signal
1,CCCAATCCATCGCGCCCGCGCTCCGCTCCGCTGCCTATAACGGAGTCACCTAGTGCAG,11100 fluorescence intensity (a.u.)
2,TTAACTTTTGTCATAACGTTTGACTATCCGTCTTGCTCAACGGAGTCACCTAGTGCAG,8530 fluorescence intensity (a.u.)
3,ACCGTGTGGGTATGGTGTGCGTGTGTAGTGGTGTTTGTGCCGGAGTCACCTAGTGCAG,9600 fluorescence intensity (a.u.)
4,CATCTGTTTGGTCCTGTAATGTTTTGTTAGTTGTCTACACCGGAGTCACCTAGTGCAG,8180 fluorescence intensity (a.u.)
5,AACACCAATTCCTTATATAGTACATTTCATCATCTTCGATCGGAGTCACCTAGTGCAG,10400 fluorescence intensity (a.u.)
6,ATTAAGTTTCTTTTTATTTATTGGTGTGCATGTCTTATCTCGGAGTCACCTAGTGCAG,8840 fluorescence intensity (a.u.)
7,CGTTGCTCCGGCGCGCCATGTTCGAGCTGCTCCTGTACATCGGAGTCACCTAGTGCAG,8320 fluorescence intensity (a.u.)
8,GAGTGTCCCTTGTTGCTTTCCATCCCTAACTACTAGAGCTCGGAGTCACCTAGTGCAG,10600 fluorescence intensity (a.u.)
9,GGATGAGGAGGAGGGTGTGGAGGAGGAGGAGGAGGAGGTGCGGAGTCACCTAGTGCAG,11500 fluorescence intensity (a.u.)
10,GTGTTTCTTAATTGTTTTTTGCTTTTTATTATATCTATCACGGAGTCACCTAGTGCAG,13300 fluorescence intensity (a.u.)
11,GCACATGTTGTTGTCGCTTGAAAGCTGCAAATCTCCAAATCGGAGTCACCTAGTGCAG,10000 fluorescence intensity (a.u.)
12,TGTGGATCTTCTTGGTTTGGAGTTCCCTAGCGTGCGTCCGCGGAGTCACCTAGTGCAG,8830 fluorescence intensity (a.u.)
13,CATGCACACACTACAGTACTACACTCTCTTCTCTTCTAGACGGAGTCACCTAGTGCAG,10600 fluorescence intensity (a.u.)
14,GCCATCGACTATTCATTCGTCTTCATCACCTGTTGCTTGACGGAGTCACCTAGTGCAG,10400 fluorescence intensity (a.u.)
15,GATATGTCTATCCCGTTGCAATGGGATCTCGTTTTGTAGCCGGAGTCACCTAGTGCAG,9040 fluorescence intensity (a.u.)
16,TTTCTAACACCCATCCATGCGCACAGATAGACCACCATCGCGGAGTCACCTAGTGCAG,8540 fluorescence intensity (a.u.)
17,GCACACACAATCCACTCACTCCGTCTCCATTTTAAAATATCGGAGTCACCTAGTGCAG,9440 fluorescence intensity (a.u.)
18,TTTGTTGTGGCACCACATTGGCTATGTCCCTTTTGCTTATCGGAGTCACCTAGTGCAG,10200 fluorescence intensity (a.u.)
19,GTCTCTCTCACCGTCTCCGTGCTCCTCCGCCGCCCAAGGGCGGAGTCACCTAGTGCAG,12900 fluorescence intensity (a.u.)
20,TTTCTCTCTCCCACTTCACCTCGCGATCTCTCTCTCTCTCCGGAGTCACCTAGTGCAG,10600 fluorescence intensity (a.u.)
21,TCTGCCTCCTTCTCGCGCAGATCCGCCATCGTCGGCGACGCGGAGTCACCTAGTGCAG,8740 fluorescence intensity (a.u.)

# Random excerpt: four entries already listed, in no set order.
row,Sequence,binding signal
15,CCACCGGCTGCAGATTCCACCTGCTCATCGTCGCTTCTTCCGGAGTCACCTAGTGCAG,8930 fluorescence intensity (a.u.)
8,GAGTGTCCCTTGTTGCTTTCCATCCCTAACTACTAGAGCTCGGAGTCACCTAGTGCAG,10600 fluorescence intensity (a.u.)
17,AACACCTTCATCTTCATCTTCTACCGCCAGGCAGCTGCCTCGGAGTCACCTAGTGCAG,10400 fluorescence intensity (a.u.)
13,GCCGACTACCACCACAACCGCCTCTTGCTGCTATGGATCGCGGAGTCACCTAGTGCAG,9110 fluorescence intensity (a.u.)

# As a working copy, part of the list above:
row,Sequence,binding signal
16,TTTCTAACACCCATCCATGCGCACAGATAGACCACCATCGCGGAGTCACCTAGTGCAG,8540 fluorescence intensity (a.u.)
17,GCACACACAATCCACTCACTCCGTCTCCATTTTAAAATATCGGAGTCACCTAGTGCAG,9440 fluorescence intensity (a.u.)
18,TTTGTTGTGGCACCACATTGGCTATGTCCCTTTTGCTTATCGGAGTCACCTAGTGCAG,10200 fluorescence intensity (a.u.)
